{"source": "PubChem BioAssay AID493014", "about": "(National Center for Advancing Translational Sciences (NCATS), 2011)", "note": "Among all 340,000 compounds or so, about 170 (0.05%) were called active. The shares of active, inactive and inconclusive entries below differ from those in the screen. Calls come from the whole dose curve; as a rule, active = well fitted inhibition curve with a large enough effect in the signal ratio, with a control signal flat (not every such curve was filed as active); inconclusive = small, poorly fitted or top-dose-only effect, or effect the other way, or a change in a side signal; inactive = flat fitted curve, though single readings scatter; the % refers to the signal ratio. Potencies of inconclusive entries are doubtful fits and often do not repeat. Potency is the fitted concentration of half-maximal effect.", "data": [{"test": "qHTS Assay to Find Inhibitors of Chronic Active B-Cell Receptor Signaling;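 for activity change, negative = inhibition: plate controls were basal doxycycline-induced cells for no effect and cells given 10 µM MG132 for full effect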", "conditions": "ABC-DLBCL IkBa-CBG/CBR reporter, luminescence ratio (green luciferase fused to IkBa over red control in TMD8 lymphoma cells), 4 h; activity change, negative = inhibition: at 46.1 µM (top of the series)", "summary_of_the_method": "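TMD8 human ABC-DLBCL cells with doxycycline-inducible IκBα–green luciferase fusion and unfused red luciferase, in 0.5% FBS medium; compounds up to 46 uM, 4 h at 37C. Green/red luminescence ratio, filter-overlap corrected, fitted to concentration-response curves.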", "values": [{"smiles": "O=C(CCCN1C(=O)S/C(=C\\C=C\\c2ccccc2)C1=O)Nc1ccc(O)cc1", "Potency": "inconclusive: 0.631 µM [rising, partial curve, poor fit]"}, {"smiles": "COc1ccc(Nc2ncnc3sc(-c4ccccc4)cc23)cc1", "activity change, negative = inhibition": "inconclusive: 1.68%"}, {"smiles": "COC(=O)c1sccc1N/N=C/c1ccc(OC)c(OC)c1OC", "Potency": "inconclusive: 18.4 µM [falling, partial curve]"}, {"smiles": "COC(=O)c1cccc(Cn2c(Cl)c(/C=N/Nc3ccccc3C)sc2=O)c1", "Potency": "inconclusive: 8.2 µM [falling, partial curve, poor fit]"}, {"smiles": "NC(=S)N1OC[C@@H]2COc3ccc4ccccc4c3[C@@H]21", "Potency": "inconclusive: 35.5 µM [activator, single point]"}, {"smiles": "Cn1cc(C(=O)N2CCCC(Nc3ccc(F)cc3)C2)c2ccccc21", "note": "(stereo not drawn)", "Potency": "inconclusive: 14.1 µM [falling, partial curve, poor fit]"}, {"smiles": "CCC[C@@H]1C[C@@H](C(=O)NC(C(C)Cl)[C@H]2O[C@H](SC)[C@H](O)[C@@H](O)[C@H]2O)N(C)C1", "note": "(stereo partly drawn)", "Potency": "inconclusive: 6.31 µM [falling, single point]"}, {"smiles": "C(=C1/CCCC2=C1Nc1ncnn1C2c1ccccc1)/c1ccccc1", "note": "(stereo not drawn)", "Potency": "inconclusive: 35.5 µM [rising, single point]"}, {"smiles": "CCCCC(=O)Nc1sc2c(c1-c1nc3ccccc3s1)CCN(C(C)=O)C2", "activity change, negative = inhibition": "inactive"}, {"smiles": "Cc1nc(N)sc1-c1nnc(SCC(=O)Nc2nccs2)n1C", "activity change, negative = inhibition": "inconclusive: 4.95%"}, {"smiles": "Cn1cncc1C(=O)c1ccccc1", "activity change, negative = inhibition": "inconclusive: 18.5%"}, {"smiles": "C=CCSc1ncc(C(=O)OCC)c(N)n1", "activity change, negative = inhibition": "inactive"}, {"smiles": "COC(=O)c1sc2cnccc2c1N", "activity change, negative = inhibition": "inconclusive: 8.92%"}, {"smiles": "Cc1noc(C)c1COc1ccc(C(=O)OC(C)C(=O)Nc2ccc(N3CCOCC3)cc2)cc1", "note": "(stereo not drawn)", "Potency": "inconclusive: 29.1 µM [falling, single point]"}, {"smiles": "CC(=O)N1c2ccc(S(=O)(=O)N3CCC(C(=O)NCc4ccc(C)cc4)CC3)cc2CC1C", "note": "(stereo not drawn)", "activity change, negative = inhibition": "inactive"}, {"smiles": "COc1ccccc1-n1c(SCC(=O)c2ccc(O)cc2O)nc2cc([N+](=O)[O-])ccc21", "activity change, negative = inhibition": "inconclusive: -6.16%"}, {"smiles": "O=C(CCS(=O)(=O)c1ccc(Br)s1)Nc1ccccc1Br", "activity change, negative = inhibition": "inactive"}, {"smiles": "CCOC(=O)N1CCN(C(=O)COC(=O)c2oc3ccc(OC)cc3c2C)CC1", "activity change, negative = inhibition": "inactive"}, {"smiles": "CCOc1ccc(CC(=O)Nc2nccs2)cc1", "Potency": "inconclusive: 12.6 µM [falling, partial curve, poor fit]"}, {"smiles": "CC1=C([N+](=O)[O-])C(c2ccccc2C(F)(F)F)NC(=O)N1C", "note": "(stereo not drawn)", "Potency": "inconclusive: 15.8 µM [falling, partial curve, poor fit]"}, {"smiles": "COc1ccc(CNc2ncc(-c3ccccc3)n2C)c2ccccc12", "activity change, negative = inhibition": "inconclusive: -19.9%"}, {"smiles": "NC(=O)c1ccc(C[C@H](C(=O)O)N2C(=O)c3ccc(C(=O)O)cc3C2=O)cc1", "activity change, negative = inhibition": "inactive"}, {"smiles": "COC(=O)c1ccc(-c2ccc(F)cc2)nc1C", "activity change, negative = inhibition": "inconclusive: 1.99%"}, {"smiles": "CCCCn1nc(C(=O)Nc2cc(C(F)(F)F)ccc2N2CCOCC2)ccc1=O", "activity change, negative = inhibition": "inconclusive: 2.87%"}, {"smiles": "COc1cc(C(=O)NNC(=O)CCOc2ccccc2)cc(OC)c1OC", "activity change, negative = inhibition": "inactive"}, {"smiles": "CCN1CCc2c(sc(NC(=O)c3ccc(S(=O)(=O)N(C)c4ccccc4)cc3)c2C(=O)NC)C1", "activity change, negative = inhibition": "inactive"}, {"smiles": "CCOc1ccccc1N/C(=C(/C(Cl)=C(Cl)Cl)[N+](=O)[O-])n1cncn1", "Potency": "inconclusive: 25.9 µM [falling, partial curve]"}, {"smiles": "O=C(O)CNC(=O)c1ccc(Sc2ccccc2)c([N+](=O)[O-])c1", "activity change, negative = inhibition": "inactive"}, {"smiles": "O=C(COc1coc(CN2CCN(c3cccc(Cl)c3)CC2)cc1=O)NC1CCCC1", "activity change, negative = inhibition": "inactive"}, {"smiles": "CCN(CC)S(=O)(=O)c1ccc(NC=C(C#N)C#N)cc1", "activity change, negative = inhibition": "inconclusive: 10.3%"}, {"smiles": "CC(C)(C)c1ccc(/C=C/C(=O)c2ccc(NC3=NCCCS3)cc2)cc1", "activity change, negative = inhibition": "inconclusive: -11.2%"}, {"smiles": "COCC(C)N=Cc1c(O)[nH]c2ccccc12", "note": "(stereo not drawn)", "Potency": "inconclusive: 29.1 µM [falling, single point]"}, {"smiles": "CC(C)CCNC(=O)c1ccccc1SCC(=O)NC1CCCCCCC1", "Potency": "inconclusive: 20.6 µM [falling, partial curve, poor fit]"}, {"smiles": "O=C(Cn1cnc([N+](=O)[O-])n1)NCCO", "activity change, negative = inhibition": "inactive"}, {"smiles": "CCN(CC(=O)Nc1ccc(NC(C)=O)cc1)C(=O)c1c(-c2c(F)cccc2Cl)noc1C", "activity change, negative = inhibition": "inconclusive: -1.61%"}, {"smiles": "COc1ccc(/C=C/C(=O)NC(=S)NN2CCCCC2c2cccnc2)cc1", "note": "(stereo not drawn)", "Potency": "inconclusive: 35.5 µM [falling, single point]"}, {"smiles": "O=C(O)c1cc(=O)c2ccccc2o1", "activity change, negative = inhibition": "inconclusive: -1.95%"}, {"smiles": "O=C(Cc1ccc([N+](=O)[O-])cc1)Nc1ccc(Br)cn1", "activity change, negative = inhibition": "inconclusive: 2.58%"}, {"smiles": "Cc1[nH]nc2c1C(c1ccc(-c3ccc(Cl)cc3)o1)C(C#N)=C(N)O2", "note": "(stereo not drawn)", "Potency": "inconclusive: 23.1 µM [falling, single point]"}, {"smiles": "O=C(O)C1C2CCC(O2)C1C(=O)Nc1cnn(Cc2ccccc2)c1", "note": "(stereo not drawn)", "activity change, negative = inhibition": "inconclusive: 9.46%"}, {"smiles": "C=CCSc1nnc2c(n1)[nH]c1c(C)cccc12", "activity change, negative = inhibition": "inconclusive: -19.4%"}, {"smiles": "CCOc1ccc(-c2cc(CCCC(=O)Nc3cc(OC)ccc3OC)no2)cc1", "Potency": "inconclusive: 17.8 µM [falling, partial curve, poor fit]"}, {"smiles": "CCOP(=O)(OCC)/C(C#N)=C/c1c[nH]c2ccccc12", "Potency": "inconclusive: 17.8 µM [falling, partial curve, poor fit]"}, {"smiles": "CCN(CC)CCNC(=O)C1c2ccccc2C(=O)N(CCOC)C1c1ccc(F)cc1", "note": "(stereo not drawn)", "activity change, negative = inhibition": "inconclusive: 8.48%"}, {"smiles": "COc1ccc([C@@H](OC)[C@@]2(Cc3ccc(O)cc3)N=C(N)N(C)C2=O)cc1", "activity change, negative = inhibition": "inactive"}, {"smiles": "COc1ccc(N2CCN(Cc3nc(N)nc(Nc4ccc(C)c(Cl)c4)n3)CC2)cc1", "Potency": "inconclusive: 2.59 µM [falling, partial curve, poor fit]"}, {"smiles": "O=C(NCCN1C(=O)S/C(=C\\c2cccnc2)C1=O)c1cc(S(=O)(=O)N2CCOCC2)ccc1F", "Potency": "inconclusive: 35.5 µM [falling, single point]"}, {"smiles": "COc1cccc(C(=O)NCC(c2cccs2)N2CCc3ccccc32)c1", "note": "(stereo not drawn)", "activity change, negative = inhibition": "inconclusive: 11.4%"}]}]}
